Source: the supplement of paper PMC11732987, “Enantioselective OTUD7B fragment discovery through chemoproteomics screening and high-throughput optimisation” (Communications Chemistry, 2025)
The other results are listed elsewhere or left out. The data scatter; read single values as rough.

By UniProt entry, the sequences of proteins in these tests, tags left out. Where a name states a change or a piece, a line headed by the entry shows the natural chain unless it says otherwise. Residues count along the entry.
UniProt Q9P219: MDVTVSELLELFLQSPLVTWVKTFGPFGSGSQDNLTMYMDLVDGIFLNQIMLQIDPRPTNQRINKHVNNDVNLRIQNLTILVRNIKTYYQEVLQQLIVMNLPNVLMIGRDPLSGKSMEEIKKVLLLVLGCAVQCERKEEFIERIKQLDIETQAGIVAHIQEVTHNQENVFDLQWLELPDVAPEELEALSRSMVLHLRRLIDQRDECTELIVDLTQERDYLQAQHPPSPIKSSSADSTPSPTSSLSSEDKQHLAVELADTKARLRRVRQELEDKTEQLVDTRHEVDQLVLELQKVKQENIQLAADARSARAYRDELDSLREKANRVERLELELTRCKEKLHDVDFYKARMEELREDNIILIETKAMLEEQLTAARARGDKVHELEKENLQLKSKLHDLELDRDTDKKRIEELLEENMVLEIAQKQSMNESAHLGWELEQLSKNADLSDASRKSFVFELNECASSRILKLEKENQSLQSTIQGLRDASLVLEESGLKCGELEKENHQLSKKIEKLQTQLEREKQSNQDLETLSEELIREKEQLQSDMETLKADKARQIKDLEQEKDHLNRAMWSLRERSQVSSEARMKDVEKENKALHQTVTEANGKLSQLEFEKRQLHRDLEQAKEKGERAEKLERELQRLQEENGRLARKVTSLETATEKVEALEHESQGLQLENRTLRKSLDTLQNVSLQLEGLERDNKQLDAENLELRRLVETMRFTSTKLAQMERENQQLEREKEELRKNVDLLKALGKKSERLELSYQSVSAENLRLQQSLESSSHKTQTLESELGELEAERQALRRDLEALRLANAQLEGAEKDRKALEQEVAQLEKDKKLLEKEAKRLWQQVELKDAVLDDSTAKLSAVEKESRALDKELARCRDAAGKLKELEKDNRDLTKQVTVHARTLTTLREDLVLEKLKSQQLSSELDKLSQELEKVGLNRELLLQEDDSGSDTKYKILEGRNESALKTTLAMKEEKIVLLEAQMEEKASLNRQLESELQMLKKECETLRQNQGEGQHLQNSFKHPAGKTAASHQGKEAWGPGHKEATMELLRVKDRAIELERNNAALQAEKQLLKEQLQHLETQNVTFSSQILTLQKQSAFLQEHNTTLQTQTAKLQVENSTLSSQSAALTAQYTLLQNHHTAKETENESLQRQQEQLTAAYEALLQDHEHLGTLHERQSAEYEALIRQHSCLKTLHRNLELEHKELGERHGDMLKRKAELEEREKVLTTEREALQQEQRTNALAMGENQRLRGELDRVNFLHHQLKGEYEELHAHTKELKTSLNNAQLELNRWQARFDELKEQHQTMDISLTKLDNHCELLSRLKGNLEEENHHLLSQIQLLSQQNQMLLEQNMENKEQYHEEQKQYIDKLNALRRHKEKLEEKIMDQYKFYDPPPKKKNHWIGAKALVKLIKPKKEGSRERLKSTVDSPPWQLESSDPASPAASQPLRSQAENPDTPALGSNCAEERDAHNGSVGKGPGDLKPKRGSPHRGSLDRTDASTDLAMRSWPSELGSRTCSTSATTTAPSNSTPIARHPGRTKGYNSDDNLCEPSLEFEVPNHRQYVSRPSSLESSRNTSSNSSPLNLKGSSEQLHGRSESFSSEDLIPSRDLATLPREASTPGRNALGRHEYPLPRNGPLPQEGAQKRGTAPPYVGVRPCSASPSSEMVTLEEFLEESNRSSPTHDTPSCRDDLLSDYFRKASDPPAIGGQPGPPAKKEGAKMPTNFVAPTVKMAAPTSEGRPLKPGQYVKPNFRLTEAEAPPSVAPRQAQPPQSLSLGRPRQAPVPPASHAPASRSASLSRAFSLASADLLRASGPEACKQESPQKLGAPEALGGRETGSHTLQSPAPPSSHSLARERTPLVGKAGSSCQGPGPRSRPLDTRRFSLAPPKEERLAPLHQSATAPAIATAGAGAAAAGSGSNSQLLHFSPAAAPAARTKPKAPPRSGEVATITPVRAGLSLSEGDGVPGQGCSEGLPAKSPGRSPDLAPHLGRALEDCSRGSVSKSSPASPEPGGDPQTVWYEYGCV
UniProt P49454: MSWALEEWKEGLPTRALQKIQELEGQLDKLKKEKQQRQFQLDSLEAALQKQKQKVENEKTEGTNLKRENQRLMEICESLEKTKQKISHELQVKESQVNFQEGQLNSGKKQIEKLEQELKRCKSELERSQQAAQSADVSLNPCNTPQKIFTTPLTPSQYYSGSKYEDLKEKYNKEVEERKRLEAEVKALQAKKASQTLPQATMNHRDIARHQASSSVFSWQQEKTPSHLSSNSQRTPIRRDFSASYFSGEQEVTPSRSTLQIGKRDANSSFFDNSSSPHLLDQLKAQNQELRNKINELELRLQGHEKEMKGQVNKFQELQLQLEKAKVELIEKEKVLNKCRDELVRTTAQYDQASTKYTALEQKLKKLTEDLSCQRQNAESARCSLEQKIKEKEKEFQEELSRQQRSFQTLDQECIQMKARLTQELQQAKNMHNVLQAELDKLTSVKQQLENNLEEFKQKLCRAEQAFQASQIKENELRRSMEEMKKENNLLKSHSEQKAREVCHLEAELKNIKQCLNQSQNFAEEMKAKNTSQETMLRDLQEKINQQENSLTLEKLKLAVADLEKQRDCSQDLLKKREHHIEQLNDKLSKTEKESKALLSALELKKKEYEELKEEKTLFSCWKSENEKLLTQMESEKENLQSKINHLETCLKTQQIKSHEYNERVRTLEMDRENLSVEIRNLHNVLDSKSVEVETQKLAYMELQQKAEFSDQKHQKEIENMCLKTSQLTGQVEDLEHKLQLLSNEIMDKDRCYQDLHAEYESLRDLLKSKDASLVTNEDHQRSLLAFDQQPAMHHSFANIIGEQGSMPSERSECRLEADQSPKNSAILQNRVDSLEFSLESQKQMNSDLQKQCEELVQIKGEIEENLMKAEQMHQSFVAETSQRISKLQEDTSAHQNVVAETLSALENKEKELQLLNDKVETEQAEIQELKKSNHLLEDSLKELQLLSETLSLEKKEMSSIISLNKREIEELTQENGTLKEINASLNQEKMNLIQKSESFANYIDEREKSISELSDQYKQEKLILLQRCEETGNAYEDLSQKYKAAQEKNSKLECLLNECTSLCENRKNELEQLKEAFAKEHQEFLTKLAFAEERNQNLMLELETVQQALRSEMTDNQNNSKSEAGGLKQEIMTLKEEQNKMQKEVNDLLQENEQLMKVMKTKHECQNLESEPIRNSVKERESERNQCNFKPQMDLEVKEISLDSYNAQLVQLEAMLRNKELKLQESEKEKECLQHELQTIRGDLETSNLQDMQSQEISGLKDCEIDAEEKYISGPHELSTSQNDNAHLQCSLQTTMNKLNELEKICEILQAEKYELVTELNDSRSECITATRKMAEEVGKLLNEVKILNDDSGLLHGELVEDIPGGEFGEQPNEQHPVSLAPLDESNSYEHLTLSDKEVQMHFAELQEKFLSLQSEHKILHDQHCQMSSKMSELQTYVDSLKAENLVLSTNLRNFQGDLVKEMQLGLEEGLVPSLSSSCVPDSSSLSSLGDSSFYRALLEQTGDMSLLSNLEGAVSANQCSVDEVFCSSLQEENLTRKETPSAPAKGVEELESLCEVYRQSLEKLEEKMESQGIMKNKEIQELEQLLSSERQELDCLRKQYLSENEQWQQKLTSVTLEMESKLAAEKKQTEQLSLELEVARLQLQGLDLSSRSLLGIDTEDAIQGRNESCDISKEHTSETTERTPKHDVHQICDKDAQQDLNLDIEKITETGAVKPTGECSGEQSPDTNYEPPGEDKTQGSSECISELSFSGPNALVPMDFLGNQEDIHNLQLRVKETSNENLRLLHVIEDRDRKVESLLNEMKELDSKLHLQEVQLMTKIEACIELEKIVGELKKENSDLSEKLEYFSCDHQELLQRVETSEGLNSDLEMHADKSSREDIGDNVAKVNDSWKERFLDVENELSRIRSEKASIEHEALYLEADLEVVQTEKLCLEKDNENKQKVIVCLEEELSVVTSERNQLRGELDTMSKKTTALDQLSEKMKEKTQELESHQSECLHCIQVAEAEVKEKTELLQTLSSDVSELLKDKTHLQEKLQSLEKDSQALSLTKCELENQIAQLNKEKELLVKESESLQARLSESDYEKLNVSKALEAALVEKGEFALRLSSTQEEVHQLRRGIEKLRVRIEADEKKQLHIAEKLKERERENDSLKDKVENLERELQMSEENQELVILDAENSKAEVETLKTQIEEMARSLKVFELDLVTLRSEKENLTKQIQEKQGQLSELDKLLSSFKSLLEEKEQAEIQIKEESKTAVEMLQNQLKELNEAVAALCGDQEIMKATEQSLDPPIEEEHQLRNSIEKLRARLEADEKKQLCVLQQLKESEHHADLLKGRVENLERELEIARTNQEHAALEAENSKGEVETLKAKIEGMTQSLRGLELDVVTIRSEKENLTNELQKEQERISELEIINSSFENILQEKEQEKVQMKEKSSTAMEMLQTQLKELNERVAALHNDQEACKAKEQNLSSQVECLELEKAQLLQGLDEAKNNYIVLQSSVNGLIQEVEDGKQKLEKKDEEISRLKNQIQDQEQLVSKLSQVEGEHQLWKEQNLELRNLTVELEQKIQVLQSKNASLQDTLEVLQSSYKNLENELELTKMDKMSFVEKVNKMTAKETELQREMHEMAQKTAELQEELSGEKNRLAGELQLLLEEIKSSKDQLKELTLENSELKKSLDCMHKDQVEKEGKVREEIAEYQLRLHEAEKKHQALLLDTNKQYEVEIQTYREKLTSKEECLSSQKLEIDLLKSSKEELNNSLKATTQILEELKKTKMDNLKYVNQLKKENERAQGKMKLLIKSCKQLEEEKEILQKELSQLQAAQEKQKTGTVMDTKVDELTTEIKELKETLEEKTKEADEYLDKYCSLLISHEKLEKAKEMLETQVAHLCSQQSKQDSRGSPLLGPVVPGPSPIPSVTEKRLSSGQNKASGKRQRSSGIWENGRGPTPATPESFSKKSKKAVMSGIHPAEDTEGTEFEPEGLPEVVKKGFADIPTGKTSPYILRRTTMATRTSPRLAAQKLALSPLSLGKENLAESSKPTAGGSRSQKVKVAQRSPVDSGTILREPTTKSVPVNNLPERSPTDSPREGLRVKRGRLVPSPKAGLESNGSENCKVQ
UniProt P48643, whole entry, looked up: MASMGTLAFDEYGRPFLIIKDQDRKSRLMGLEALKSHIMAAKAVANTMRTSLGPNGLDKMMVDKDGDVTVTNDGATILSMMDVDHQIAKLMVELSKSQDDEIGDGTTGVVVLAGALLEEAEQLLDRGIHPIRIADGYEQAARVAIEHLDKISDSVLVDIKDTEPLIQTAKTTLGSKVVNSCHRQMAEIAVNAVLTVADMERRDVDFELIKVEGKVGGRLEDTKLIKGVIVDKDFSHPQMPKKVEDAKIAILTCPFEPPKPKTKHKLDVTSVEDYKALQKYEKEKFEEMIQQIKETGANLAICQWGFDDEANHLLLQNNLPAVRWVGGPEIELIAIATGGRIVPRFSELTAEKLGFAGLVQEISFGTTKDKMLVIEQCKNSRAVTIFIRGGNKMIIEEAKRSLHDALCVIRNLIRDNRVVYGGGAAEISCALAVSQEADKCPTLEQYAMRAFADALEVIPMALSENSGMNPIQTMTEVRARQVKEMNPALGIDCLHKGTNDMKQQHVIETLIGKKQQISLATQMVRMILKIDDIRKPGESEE
UniProt Q9C0D2, 2288-2308: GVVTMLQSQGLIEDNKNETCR
UniProt Q9H3R5: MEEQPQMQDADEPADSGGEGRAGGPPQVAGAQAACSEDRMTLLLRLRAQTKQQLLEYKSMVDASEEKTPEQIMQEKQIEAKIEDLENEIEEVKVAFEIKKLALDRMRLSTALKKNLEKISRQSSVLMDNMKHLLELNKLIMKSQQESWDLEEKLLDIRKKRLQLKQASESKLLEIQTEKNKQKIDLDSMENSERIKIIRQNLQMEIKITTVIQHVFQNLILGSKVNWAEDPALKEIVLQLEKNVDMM
UniProt P07199: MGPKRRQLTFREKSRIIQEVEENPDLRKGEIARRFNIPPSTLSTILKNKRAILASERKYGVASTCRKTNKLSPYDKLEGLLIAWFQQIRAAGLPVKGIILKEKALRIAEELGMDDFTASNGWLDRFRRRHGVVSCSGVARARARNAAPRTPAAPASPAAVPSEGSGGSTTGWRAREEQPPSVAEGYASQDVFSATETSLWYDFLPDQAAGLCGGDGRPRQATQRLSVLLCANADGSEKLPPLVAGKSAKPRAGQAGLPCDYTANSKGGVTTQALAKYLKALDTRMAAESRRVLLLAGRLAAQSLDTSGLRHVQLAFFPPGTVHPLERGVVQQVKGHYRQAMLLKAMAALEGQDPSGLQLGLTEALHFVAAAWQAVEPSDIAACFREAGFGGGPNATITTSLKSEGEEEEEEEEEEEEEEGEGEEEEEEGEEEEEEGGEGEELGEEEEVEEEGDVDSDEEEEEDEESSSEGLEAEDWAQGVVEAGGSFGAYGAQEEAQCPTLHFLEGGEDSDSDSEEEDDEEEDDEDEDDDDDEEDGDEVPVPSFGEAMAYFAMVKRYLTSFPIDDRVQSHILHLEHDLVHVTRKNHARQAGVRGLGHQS
UniProt Q9C0F1, 349-368: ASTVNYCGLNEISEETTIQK

compound: ClCC(=O)N[C@@H]1CCCc2ccccc12; test: log2 mean competition ratio of IA-DTB cysteine labelling (DMSO/compound) (log2 ratio); higher = stronger cysteine engagement by compound; conditions: 50 µM; treatment time: 4 h; cell line lysate: HEK293T
Procedure: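 IA-DTB competitive cysteine chemoproteomics in HEK293T RIPA lysate. Lysates were treated with compound 29 or 30 at 50 or 200 µM for 4 h, then IA-DTB (500 µM, 1 h), trypsin-digested, NeutrAvidin-enriched and analysed by diaPASEF. Competition ratio = intensity DMSO / intensity compound (n=4 treated, n=64 DMSO); binding: mean log2 CR ≥ 1 and p ≤ 0.05 plus QC filters. Target is the cysteine site.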

Target | log2 mean competition ratio
CCDC88C C1871 (UniProt Q9P219) | -0.106
CDC42EP4 C313 (UniProt Q9H3Q1) | -0.291
CENPF C503 (UniProt P49454) | 0.0166
CCT7 C364 (UniProt Q99832) | 0.143
CCT5 C253 (UniProt P48643) | -0.0173
CDC42BPB C120 (UniProt Q9Y5S2) | -0.0175
CEP112 C514 (UniProt Q8N8E3) | -0.391
CEP41 C240 (UniProt Q9BYV8) | -0.0747
CCP110 C436 (UniProt O43303) | 0.0229
CDK6 C83 (UniProt Q00534) | 0.471
CEP295 C2307 (UniProt Q9C0D2) | 0.139
CCDC97 C136 (UniProt Q96F63) | 0.415
CENPF C1029 (UniProt P49454) | 0.364
CDK5RAP3 C150 (UniProt Q96JB5) | -0.0942
CDK8 C25 (UniProt P49336) | -0.252
CDKN2AIP C24 (UniProt Q9NXV6) | 0.0792
CDC23 C532 (UniProt Q9UJX2) | 0.208
CCT5 C407 (UniProt P48643) | -0.141
CCDC186 C54 (UniProt Q7Z3E2) | 0.365
CCDC85C C373 (UniProt A6NKD9) | -0.352
CDKN2C C141 (UniProt P42773) | -0.0786
CCT7 C310 (UniProt Q99832) | 0.043
CENPH C35 (UniProt Q9H3R5) | -0.115
CENPB C259 (UniProt P07199) | 0.131
CEP44 C355 (UniProt Q9C0F1) | -0.274
CDCA2 C714 (UniProt Q69YH5) | -0.415

Exported with tabs: entries from further up.
Target	log2 mean competition ratio
CEP112 C514 (UniProt Q8N8E3)	-0.391
CEP41 C240 (UniProt Q9BYV8)	-0.0747
